No constants are given. Whether binding was seen depends on the method and setting. Binding seen in cells or lysates may run through a third protein. A yes stands for co-enrichment or nearness to the bait. Other partners may have been found. Where a sequence is shown, tags or fusion partners need not be part of it.
T1: FLAG-SCAF8 (human) (UniProt Q9UPN6)
T1 sequence: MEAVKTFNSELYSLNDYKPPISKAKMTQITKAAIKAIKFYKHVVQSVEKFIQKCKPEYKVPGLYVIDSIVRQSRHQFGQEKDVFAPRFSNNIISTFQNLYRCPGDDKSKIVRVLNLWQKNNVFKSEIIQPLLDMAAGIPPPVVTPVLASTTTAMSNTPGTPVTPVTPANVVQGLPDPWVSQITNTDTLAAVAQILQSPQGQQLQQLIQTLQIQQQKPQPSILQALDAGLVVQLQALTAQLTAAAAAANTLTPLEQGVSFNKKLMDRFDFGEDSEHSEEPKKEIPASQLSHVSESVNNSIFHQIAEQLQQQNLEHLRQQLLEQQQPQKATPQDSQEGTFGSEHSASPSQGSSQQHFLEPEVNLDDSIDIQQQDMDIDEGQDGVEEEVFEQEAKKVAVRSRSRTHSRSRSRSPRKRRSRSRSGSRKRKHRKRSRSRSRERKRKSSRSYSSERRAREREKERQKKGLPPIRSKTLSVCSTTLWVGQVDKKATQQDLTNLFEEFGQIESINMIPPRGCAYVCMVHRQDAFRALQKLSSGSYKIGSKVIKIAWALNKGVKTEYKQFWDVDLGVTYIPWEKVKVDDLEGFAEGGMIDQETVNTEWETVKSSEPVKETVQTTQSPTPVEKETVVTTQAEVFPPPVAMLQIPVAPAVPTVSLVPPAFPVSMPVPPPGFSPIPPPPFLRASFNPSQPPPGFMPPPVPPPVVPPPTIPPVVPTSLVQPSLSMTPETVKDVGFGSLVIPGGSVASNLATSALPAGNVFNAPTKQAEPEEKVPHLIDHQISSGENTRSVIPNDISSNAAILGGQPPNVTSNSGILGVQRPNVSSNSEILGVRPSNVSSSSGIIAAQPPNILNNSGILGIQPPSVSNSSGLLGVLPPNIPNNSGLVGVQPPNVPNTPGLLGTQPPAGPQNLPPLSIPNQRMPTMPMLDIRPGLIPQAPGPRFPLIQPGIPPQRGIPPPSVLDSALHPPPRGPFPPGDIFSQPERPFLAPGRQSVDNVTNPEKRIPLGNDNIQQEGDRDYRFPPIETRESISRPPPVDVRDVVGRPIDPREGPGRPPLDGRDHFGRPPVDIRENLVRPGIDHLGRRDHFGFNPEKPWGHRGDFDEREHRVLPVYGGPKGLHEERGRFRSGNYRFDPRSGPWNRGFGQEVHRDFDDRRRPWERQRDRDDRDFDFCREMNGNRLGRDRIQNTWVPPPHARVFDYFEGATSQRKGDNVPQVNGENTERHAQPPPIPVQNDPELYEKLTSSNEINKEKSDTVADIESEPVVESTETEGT

By UniProt entry, the sequences of proteins in these tests, tags left out.
UniProt O94762: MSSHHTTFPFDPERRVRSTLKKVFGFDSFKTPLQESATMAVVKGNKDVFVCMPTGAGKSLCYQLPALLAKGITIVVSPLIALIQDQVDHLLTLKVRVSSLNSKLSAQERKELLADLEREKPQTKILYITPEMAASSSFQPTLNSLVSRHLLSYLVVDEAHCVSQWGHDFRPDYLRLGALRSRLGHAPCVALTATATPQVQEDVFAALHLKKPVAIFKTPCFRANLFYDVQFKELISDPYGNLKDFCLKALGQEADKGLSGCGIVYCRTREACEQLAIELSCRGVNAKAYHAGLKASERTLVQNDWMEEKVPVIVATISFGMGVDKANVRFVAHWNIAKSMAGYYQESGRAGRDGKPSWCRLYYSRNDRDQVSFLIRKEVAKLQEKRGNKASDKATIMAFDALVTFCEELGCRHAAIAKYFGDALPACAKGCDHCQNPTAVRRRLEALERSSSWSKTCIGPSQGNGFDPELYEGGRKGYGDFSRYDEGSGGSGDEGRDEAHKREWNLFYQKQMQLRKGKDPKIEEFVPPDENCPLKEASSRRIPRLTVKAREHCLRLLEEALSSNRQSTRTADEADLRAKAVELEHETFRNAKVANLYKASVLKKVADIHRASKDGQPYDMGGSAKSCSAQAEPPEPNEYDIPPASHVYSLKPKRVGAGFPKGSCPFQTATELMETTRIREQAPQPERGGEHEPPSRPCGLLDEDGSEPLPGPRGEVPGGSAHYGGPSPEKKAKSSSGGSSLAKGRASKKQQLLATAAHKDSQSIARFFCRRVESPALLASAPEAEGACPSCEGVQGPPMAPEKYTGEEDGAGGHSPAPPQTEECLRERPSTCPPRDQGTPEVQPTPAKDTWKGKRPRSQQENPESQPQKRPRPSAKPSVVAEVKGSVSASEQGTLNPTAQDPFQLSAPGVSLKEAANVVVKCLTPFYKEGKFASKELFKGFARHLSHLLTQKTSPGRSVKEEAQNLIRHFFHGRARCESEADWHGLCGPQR
UniProt Q8IXW5: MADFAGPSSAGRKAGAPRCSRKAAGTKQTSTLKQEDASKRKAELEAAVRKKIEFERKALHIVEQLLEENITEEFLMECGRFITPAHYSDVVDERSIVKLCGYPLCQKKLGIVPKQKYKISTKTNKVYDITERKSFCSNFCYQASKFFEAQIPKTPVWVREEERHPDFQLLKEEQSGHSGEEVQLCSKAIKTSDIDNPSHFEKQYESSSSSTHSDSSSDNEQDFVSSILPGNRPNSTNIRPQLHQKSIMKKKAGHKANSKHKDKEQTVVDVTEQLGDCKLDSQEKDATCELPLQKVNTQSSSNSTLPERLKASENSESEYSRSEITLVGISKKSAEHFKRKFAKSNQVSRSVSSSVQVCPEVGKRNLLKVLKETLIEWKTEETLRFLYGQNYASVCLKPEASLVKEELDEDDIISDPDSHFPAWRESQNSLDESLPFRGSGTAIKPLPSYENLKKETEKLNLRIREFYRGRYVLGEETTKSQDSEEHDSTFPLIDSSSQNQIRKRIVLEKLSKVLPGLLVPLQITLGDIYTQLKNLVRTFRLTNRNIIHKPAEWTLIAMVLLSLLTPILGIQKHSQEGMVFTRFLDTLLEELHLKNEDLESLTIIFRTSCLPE
UniProt Q5VT52: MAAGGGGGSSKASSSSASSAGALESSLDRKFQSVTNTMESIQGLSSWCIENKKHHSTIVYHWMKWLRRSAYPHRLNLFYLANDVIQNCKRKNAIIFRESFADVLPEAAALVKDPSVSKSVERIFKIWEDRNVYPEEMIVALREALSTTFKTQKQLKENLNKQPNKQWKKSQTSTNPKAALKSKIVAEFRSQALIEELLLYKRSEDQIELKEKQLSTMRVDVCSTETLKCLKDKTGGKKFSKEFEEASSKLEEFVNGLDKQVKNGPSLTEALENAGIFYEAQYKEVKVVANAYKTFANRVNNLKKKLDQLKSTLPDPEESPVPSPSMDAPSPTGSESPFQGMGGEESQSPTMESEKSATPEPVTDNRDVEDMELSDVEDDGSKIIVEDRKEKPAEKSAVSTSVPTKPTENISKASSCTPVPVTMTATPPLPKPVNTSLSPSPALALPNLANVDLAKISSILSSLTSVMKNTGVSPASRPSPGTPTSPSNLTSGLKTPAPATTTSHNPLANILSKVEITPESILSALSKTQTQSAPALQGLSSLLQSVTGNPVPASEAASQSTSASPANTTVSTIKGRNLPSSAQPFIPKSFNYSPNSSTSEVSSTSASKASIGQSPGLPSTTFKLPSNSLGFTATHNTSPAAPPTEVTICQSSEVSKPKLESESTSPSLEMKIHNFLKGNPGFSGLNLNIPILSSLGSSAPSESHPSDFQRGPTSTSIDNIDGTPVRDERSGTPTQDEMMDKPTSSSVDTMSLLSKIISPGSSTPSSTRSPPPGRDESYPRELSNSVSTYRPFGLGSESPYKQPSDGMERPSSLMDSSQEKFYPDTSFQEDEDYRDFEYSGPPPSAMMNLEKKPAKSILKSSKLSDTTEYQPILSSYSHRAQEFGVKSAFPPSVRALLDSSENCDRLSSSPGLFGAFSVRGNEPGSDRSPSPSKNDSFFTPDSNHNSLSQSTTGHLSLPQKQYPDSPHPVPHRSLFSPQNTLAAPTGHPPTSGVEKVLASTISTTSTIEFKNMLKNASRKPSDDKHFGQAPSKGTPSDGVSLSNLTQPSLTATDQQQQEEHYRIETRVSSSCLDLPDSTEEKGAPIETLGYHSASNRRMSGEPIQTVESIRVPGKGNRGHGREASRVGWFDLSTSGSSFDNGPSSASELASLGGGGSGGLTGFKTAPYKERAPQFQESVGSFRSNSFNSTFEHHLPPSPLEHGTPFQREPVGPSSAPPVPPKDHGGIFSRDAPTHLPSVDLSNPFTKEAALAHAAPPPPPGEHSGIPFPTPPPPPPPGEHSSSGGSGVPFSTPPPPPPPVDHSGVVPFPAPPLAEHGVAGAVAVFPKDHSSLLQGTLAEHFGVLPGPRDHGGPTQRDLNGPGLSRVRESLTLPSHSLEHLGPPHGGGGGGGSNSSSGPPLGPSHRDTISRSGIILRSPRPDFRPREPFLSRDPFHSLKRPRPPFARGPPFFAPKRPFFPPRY
UniProt Q9P1Y6: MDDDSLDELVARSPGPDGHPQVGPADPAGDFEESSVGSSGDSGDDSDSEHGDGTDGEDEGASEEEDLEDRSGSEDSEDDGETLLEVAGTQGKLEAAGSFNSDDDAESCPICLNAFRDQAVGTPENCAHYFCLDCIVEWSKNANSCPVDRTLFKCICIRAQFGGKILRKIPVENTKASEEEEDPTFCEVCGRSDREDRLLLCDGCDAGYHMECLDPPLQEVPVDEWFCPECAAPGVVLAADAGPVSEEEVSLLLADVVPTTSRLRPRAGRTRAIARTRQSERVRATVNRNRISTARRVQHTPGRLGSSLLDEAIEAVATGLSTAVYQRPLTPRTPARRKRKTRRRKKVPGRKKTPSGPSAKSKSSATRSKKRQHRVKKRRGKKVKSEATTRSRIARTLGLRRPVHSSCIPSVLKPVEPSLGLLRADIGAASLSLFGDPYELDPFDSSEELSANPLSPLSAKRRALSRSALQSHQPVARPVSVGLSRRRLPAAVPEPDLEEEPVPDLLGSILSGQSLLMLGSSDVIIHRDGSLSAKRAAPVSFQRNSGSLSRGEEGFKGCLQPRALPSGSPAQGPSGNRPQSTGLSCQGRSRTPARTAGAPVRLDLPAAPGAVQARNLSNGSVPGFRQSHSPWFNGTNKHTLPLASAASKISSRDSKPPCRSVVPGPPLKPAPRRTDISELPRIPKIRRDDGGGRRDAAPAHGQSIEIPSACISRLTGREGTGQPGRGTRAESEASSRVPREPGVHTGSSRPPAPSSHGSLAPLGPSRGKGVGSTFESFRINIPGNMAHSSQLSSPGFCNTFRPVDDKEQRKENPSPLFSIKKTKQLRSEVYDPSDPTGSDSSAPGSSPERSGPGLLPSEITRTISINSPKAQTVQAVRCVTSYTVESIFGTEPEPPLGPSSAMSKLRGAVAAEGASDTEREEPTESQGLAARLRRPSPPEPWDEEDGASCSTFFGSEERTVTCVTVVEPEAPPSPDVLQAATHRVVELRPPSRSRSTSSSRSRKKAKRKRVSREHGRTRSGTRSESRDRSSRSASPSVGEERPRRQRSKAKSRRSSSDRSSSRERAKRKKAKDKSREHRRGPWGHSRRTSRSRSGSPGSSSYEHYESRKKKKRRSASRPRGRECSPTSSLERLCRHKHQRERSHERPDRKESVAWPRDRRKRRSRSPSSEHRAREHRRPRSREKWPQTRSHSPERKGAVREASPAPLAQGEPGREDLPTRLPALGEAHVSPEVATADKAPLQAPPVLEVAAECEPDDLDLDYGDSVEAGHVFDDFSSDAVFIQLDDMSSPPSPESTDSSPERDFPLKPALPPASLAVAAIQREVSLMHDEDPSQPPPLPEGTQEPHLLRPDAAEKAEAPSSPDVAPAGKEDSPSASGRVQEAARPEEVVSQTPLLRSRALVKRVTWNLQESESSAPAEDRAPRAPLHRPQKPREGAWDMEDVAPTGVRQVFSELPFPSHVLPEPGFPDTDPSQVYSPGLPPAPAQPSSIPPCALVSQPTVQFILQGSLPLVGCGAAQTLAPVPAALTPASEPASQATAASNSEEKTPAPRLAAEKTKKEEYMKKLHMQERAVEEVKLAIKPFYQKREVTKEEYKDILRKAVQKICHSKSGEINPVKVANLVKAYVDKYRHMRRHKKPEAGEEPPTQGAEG

T2: FLAG-SCAF4 (human) (UniProt O95104)
T2 sequence: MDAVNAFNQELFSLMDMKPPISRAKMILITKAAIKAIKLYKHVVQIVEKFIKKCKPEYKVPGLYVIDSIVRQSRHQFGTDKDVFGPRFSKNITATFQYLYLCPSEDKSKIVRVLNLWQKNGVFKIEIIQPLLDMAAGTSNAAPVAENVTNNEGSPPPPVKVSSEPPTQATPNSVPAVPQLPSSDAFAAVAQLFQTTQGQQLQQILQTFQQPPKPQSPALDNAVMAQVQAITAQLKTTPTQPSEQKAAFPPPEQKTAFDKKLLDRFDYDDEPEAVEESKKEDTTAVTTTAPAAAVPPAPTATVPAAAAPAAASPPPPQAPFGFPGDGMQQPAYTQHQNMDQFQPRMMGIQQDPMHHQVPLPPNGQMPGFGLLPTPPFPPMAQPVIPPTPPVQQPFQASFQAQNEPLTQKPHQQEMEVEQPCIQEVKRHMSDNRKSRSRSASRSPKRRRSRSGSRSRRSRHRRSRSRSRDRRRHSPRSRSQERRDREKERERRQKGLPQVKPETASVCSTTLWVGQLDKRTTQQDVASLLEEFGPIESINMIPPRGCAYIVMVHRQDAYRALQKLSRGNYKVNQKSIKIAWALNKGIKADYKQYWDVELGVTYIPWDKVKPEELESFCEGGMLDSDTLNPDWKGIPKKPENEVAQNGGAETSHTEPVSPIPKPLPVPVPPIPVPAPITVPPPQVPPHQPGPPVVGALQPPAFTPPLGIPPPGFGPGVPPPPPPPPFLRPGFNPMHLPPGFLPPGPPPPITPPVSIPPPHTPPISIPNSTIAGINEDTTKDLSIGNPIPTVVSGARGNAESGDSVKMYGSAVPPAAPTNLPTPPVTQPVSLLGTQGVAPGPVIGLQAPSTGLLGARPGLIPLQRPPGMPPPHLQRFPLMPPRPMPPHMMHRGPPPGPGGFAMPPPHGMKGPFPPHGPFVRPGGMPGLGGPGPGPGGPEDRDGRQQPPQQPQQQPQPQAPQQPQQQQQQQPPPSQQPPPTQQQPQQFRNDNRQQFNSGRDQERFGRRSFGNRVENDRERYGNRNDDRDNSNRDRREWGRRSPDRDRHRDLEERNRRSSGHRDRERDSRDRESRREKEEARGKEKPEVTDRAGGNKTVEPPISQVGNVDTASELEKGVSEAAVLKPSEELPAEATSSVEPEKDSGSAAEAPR


How the values were obtained:
FLAG-SCAF8 (human) = target: T1, FLAG-SCAF8 (human); test: affinity purification with mass spectrometry; SCAF4 or SCAF8 ELCAP-MS: double IP (FLAG IP, 3xFLAG peptide elution, then RNAPII 4H8 IP) from Benzonase-treated chromatin extract; label-free, two biological replicates, triplicate injection; control: parental HEK293 cells
FLAG-SCAF4 (human) = target: T2, FLAG-SCAF4 (human); test: as above

| binding (FLAG-SCAF8 (human)) | binding (FLAG-SCAF4 (human)) | Molecule |
| --- | --- | --- |
| binds | binds | RECQL5 (from UniProt O94762 1-991) |
| binds | binds | RPAP2 (from UniProt Q8IXW5 1-612) |
| binds | binds | RPRD2 (from UniProt Q5VT52 1-1461) |
| binds | binds | PHRF1 (from UniProt Q9P1Y6 1-1649) |
| binds | binds | RPRD1B (protein, UniProt Q9NQG5 1-326) MSSFSESALEKKLSELSNSQQSVQTLSLWLIHHRKHAGPIVSVWHRELRKAKSNRKLTFLYLANDVIQNSKRKGPEFTREFESVLVDAFSHVAREADEGCKKPLERLLNIWQERSVYGGEFIQQLKLSMEDSKSPPPKATEEKKSLKRTFQQIQEEEDDDYPGSYSPQDPSAGPLLTEELIKALQDLENAASGDATVRQKIASLPQEVQDVSLLEKITDKEAAERLSKTVDEACLLLAEYNGRLAAELEDRRQLARMLVEYTQNQKDVLSEKEKKLEEYKQKLARVTQVRKELKSHIQSLPDLSLLPNVTGGLAPLPSAGDLFSTD |
| binds | binds | SCAF1 (protein, UniProt Q9H7N4 1-1312) MEEEDESRGKTEESGEDRGDGPPDRDPTLSPSAFILRAIQQAVGSSLQGDLPNDKDGSRCHGLRWRRCRSPRSEPRSQESGGTDTATVLDMATDSFLAGLVSVLDPPDTWVPSRLDLRPGESEDMLELVAEVRIGDRDPIPLPVPSLLPRLRAWRTGKTVSPQSNSSRPTCARHLTLGTGDGGPAPPPAPSSASSSPSPSPSSSSPSPPPPPPPPAPPAPPAPRFDIYDPFHPTDEAYSPPPAPEQKYDPFEPTGSNPSSSAGTPSPEEEEEEEEEEEEEEEDEEEEEGLSQSISRISETLAGIYDDNSLSQDFPGDESPRPDAQPTQPTPAPGTPPQVDSTRADGAMRRRVFVVGTEAEACREGKVSVEVVTAGGAALPPPLLPPGDSEIEEGEIVQPEEEPRLALSLFRPGGRAARPTPAASATPTAQPLPQPPAPRAPEGDDFLSLHAESDGEGALQVDLGEPAPAPPAADSRWGGLDLRRKILTQRRERYRQRSPSPAPAPAPAAAAGPPTRKKSRRERKRSGEAKEAASSSSGTQPAPPAPASPWDSKKHRSRDRKPGSHASSSARRRSRSRSRSRSTRRRSRSTDRRRGGSRRSRSREKRRRRRRSASPPPATSSSSSSRRERHRGKHRDGGGSKKKKKRSRSRGEKRSGDGSEKAPAPAPPPSGSTSCGDRDSRRRGAVPPSIQDLTDHDLFAIKRTITVGRLDKSDPRGPSPAPASSPKREVLYDSEGLSGEERGGKSSQKDRRRSGAASSSSSSREKGSRRKALDGGDRDRDRDRDRDRDRSSKKARPPKESAPSSGPPPKPPVSSGSGSSSSSSSCSSRKVKLQSKVAVLIREGVSSTTPAKDAASAGLGSIGVKFSRDRESRSPFLKPDERAPTEMAKAAPGSTKPKKTKVKAKAGAKKTKGTKGKTKPSKTRKKVRSGGGSGGSGGQVSLKKSKADSCSQAAGTKGAEETSWSGEERAAKVPSTPPPKAAPPPPALTPDSQTVDSSCKTPEVSFLPEEATEEAGVRGGAEEEEEEEEEEEEEEEEEEQQPATTTATSTAAAAPSTAPSAGSTAGDSGAEDGPASRVSQLPTLPPPMPWNLPAGVDCTTSGVLALTALLFKMEEANLASRAKAQELIQATNQILSHRKPPSSLGMTPAPVPTSLGLPPGPSSYLLPGSLPLGGCGSTPPTPTGLAATSDKREGSSSSEGRGDTDKYLKKLHTQERAVEEVKLAIKPYYQKKDITKEEYKDILRKAVHKICHSKSGEINPVKVSNLVRAYVQRYRYFRKHGRKPGDPPGPPRPPKEPGPPDKGGPGLPLPPL |
| binds | – | SCAF11 (protein, UniProt Q99590 1-1463) MKKKTVCTLNMGDKKYEDMEGEENGDNTISTGLLYSEADRCPICLNCLLEKEVGFPESCNHVFCMTCILKWAETLASCPIDRKPFQAVFKFSALEGYVKVQVKKQLRETKDKKNENSFEKQVSCHENSKSCIRRKAIVREDLLSAKVCDLKWIHRNSLYSETGGKKNAAIKINKPQRSNWSTNQCFRNFFSNMFSSVSHSGESSFTYRAYCTEFIEASEISALIRQKRHELELSWFPDTLPGIGRIGFIPWNVETEVLPLISSVLPRTIFPTSTISFEHFGTSCKGYALAHTQEGEEKKQTSGTSNTRGSRRKPAMTTPTRRSTRNTRAETASQSQRSPISDNSGCDAPGNSNPSLSVPSSAESEKQTRQAPKRKSVRRGRKPPLLKKKLRSSVAAPEKSSSNDSVDEETAESDTSPVLEKEHQPDVDSSNICTVQTHVENQSANCLKSCNEQIEESEKHTANYDTEERVGSSSSESCAQDLPVLVGEEGEVKKLENTGIEANVLCLESEISENILEKGGDPLEKQDQISGLSQSEVKTDVCTVHLPNDFPTCLTSESKVYQPVSCPLSDLSENVESVVNEEKITESSLVEITEHKDFTLKTEELIESPKLESSEGEIIQTVDRQSVKSPEVQLLGHVETEDVEIIATCDTFGNEDFNNIQDSENNLLKNNLLNTKLEKSLEEKNESLTEHPRSTELPKTHIEQIQKHFSEDNNEMIPMECDSFCSDQNESEVEPSVNADLKQMNENSVTHCSENNMPSSDLADEKVETVSQPSESPKDTIDKTKKPRTRRSRFHSPSTTWSPNKDTPQEKKRPQSPSPRRETGKESRKSQSPSPKNESARGRKKSRSQSPKKDIARERRQSQSRSPKRDTTRESRRSESLSPRRETSRENKRSQPRVKDSSPGEKSRSQSRERESDRDGQRRERERRTRKWSRSRSHSRSPSRCRTKSKSSSFGRIDRDSYSPRWKGRWANDGWRCPRGNDRYRKNDPEKQNENTRKEKNDIHLDADDPNSADKHRNDCPNWITEKINSGPDPRTRNPEKLKESHWEENRNENSGNSWNKNFGSGWVSNRGRGRGNRGRGTYRSSFAYKDQNENRWQNRKPLSGNSNSSGSESFKFVEQQSYKRKSEQEFSFDTPADRSGWTSASSWAVRKTLPADVQNYYSRRGRNSSGPQSGWMKQEEETSGQDSSLKDQTNQQVDGSQLPINMMQPQMNVMQQQMNAQHQPMNIFPYPVGVHAPLMNIQRNPFNIHPQLPLHLHTGVPLMQVATPTSVSQGLPPPPPPPPPSQQVNYIASQPDGKQLQGIPSSSHVSNNMSTPVLPAPTAAPGNTGMVQGPSSGNTSSSSHSKASNAAVKLAESKVSVAVEASADSSKTDKKLQIQEKAAQEVKLAIKPFYQNKDITKEEYKEIVRKAVDKVCHSKSGEVNSTKVANLVKAYVDKYKYSRKGSQKKTLEEPVSTEKNIG |
